Paper PMC6751655

Chains of the proteins cited; added tags and fusions are not shown. Lines headed by an entry give the natural chain unless they say otherwise; changes in a name come on top.
UniProt P61960: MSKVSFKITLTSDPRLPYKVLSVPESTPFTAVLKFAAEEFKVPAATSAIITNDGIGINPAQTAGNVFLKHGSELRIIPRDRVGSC
UniProt P12830: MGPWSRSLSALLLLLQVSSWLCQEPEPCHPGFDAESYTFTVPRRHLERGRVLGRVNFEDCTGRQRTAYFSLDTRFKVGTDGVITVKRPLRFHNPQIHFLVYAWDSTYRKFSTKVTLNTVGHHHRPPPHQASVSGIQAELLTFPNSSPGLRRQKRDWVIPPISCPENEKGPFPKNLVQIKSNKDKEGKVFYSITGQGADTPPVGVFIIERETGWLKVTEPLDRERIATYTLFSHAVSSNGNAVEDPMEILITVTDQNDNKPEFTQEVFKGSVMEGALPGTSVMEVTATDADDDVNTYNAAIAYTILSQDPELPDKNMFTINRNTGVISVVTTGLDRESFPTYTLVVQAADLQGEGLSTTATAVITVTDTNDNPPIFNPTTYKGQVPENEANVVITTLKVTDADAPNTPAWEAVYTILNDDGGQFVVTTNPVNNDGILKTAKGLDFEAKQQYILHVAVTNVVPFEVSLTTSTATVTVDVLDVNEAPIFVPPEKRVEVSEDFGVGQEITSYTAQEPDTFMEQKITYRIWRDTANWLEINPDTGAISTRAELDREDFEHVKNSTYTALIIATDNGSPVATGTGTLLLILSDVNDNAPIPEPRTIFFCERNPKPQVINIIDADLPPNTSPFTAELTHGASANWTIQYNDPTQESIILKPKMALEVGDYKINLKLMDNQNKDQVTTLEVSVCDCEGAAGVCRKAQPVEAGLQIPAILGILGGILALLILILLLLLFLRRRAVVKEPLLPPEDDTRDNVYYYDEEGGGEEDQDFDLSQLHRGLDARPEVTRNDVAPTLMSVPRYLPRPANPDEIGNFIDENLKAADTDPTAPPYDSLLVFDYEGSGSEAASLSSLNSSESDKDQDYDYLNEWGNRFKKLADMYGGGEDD
UniProt P19022: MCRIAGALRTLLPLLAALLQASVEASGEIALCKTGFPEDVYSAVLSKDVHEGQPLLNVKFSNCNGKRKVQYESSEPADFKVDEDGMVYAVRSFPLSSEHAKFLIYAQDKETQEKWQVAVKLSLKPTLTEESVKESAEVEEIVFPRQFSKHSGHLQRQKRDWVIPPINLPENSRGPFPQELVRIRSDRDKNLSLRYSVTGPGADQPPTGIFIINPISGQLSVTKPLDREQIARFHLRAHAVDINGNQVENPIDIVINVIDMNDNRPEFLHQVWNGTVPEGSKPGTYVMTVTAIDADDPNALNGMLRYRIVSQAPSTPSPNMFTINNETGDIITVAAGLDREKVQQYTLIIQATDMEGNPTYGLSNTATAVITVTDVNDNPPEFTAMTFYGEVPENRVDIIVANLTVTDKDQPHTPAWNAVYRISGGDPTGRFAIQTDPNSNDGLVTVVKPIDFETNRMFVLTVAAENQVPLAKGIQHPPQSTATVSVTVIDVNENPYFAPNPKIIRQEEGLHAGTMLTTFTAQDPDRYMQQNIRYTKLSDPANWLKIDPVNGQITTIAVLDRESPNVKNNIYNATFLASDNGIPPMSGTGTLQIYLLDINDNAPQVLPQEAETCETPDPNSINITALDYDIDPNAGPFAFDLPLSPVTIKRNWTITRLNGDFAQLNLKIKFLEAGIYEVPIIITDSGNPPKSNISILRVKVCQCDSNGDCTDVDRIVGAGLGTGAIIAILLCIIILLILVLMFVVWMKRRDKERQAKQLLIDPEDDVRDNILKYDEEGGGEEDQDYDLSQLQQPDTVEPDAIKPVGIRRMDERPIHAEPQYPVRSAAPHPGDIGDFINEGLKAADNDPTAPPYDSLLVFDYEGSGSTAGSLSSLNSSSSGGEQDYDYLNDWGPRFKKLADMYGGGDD

Biological target: Ubiquitin-fold modifier 1 (human (endogenous in AGS)) (UniProt P61960)
Experiment: co-IP; immunoprecipitation with UFM1 antibody from lysates of AGS cells (Figure S4A) or stable AGS cells (Fig. 5a, down panel), overnight at 4 °C; Protein A-Sepharose beads; Western blot

| binding | Substance |
| --- | --- |
| no binding | E-cadherin (from UniProt P12830) |
| no binding | N-cadherin (from UniProt P19022) |

No constants are given. Whether binding was seen depends on the method and setting. In cells and extracts the contact can be indirect.
